# Measured values taken from patent US20120035156A1, “COMBINATION OF GLYT1 COMPOUND WITH ANTIPSYCHOTICS” (priority 2010, published 2012).
# At least one compound was matched to its structure with a doubt left.
# Key:
# [1] = system: L-687,414-induced hyperlocomotion; test: Reversal of L-687,414-induced hyperlocomotion in mice; assay type: in vivo; conditions: single agents, L-687,414 50 mg/kg
# Description: RG1678, [4-(3-Fluoro-5-trifluoromethyl-pyridin-2-yl)-piperazin-1-yl]-[5-methanesulfonyl-2-((S)-2,2,2 trifluoro-1-methyl-ethoxy)-phenyl]-methanone (WO05/014563) and L-687,414, ((3R,4R)-3-amino-1-hydroxy-4-methylpyrrolidin-2-one (Tetrahedron Letters, Vol. 49, issue 42, 2008, 6079-6080) and olanzapine were synthesized according to known methods by the Medicinal Chemistry Department of F. Hoffmann-La Roche, and risperidone was purchased from Sigma. All drugs were dissolved in H2O/0.3% Tween 80 and administered orally in a volume of 10 ml/kg body weight. […]
# A computerized Digiscan 16 Animal Activity Monitoring System (Omnitech Electronics, Columbus, Ohio) was used to quantify locomotor activity. […] Two animals per box were monitored simultaneously. […] Horizontal activity was then recorded for a 60-min time period. The horizontal activity value for each group of animals at a given dose of RG1678 alone or in combination with an antipsychotic (y1) was expressed as % of L-687,414-induced hyperlocomotion and calculated according to the equation (((y1−vehicle horizontal activity)/(L-687,414 horizontal activity−vehicle horizontal activity))×100). […]
# [2] = system: L-687,414-induced hyperlocomotion; conditions: mice; D. Alberati et al 2010; cited from earlier work
smiles,measurement,setting,value
"Cc1cc2c(s1)Nc1ccccc1N=C2N1CCN(C)CC1 [olanzapine, 2-methyl-4-(4-methyl-1-piperazinyl)-10H-thieno[2,3-b][1.5]benzodiazepine]","reversal of hyperlocomotion induced by L-687,414 (in words)",[1],dose-dependently reversed hyperlocomotion
same,"prevention of hyperlocomotion induced by L-687,414 (assay validation)",[2],effective in preventing this behavioral effect in a dose-dependant manner
